# Assay results as given in the supplement of paper PMC8728848.
# This is one part of the list.
# B1: ArathEULS3 TAP (Arabidopsis thaliana) (protein)
# chain: IDENLYFQGGSMDEKTTGWRGGHVVEGLAGELEQLRARLEHHPQGQREPGGGGSLEITSLYKKAGFMEHHHQHHRHHQRDDGEDDRQSFGVPPPHVDAPPQPHGLYQSQPHFDPYAPTPQAPAPYRSETQFEPHAPPPYRSEPYFETPAPPPSFGHVSHVGHQSPNESYPPEHHRYGGYQQPSNSLLESHGDHSGVTHVAHHSSNQPQSSSGVYHKPDENRLPDNLAGLAGRATVKVYSKAEPNYNLTIRDGKVILAPADPSDEAQHWYKDEKYSTKVKDADGHPCFALVNKATGEAMKHSVGATHPVHLIRYVPDKLDESVLWTESKDFGDGYRTIRMVNNTRLNVDAYHGDSKSGGVRDGTTIVLWDWNKGDNQLWKIFPF
# Key:
# Assay in all cases: glycan array binding signal (z-score within array); higher = stronger binding
# Settings in all cases: glycan notation: IUPAC condensed, linker removed
# [1] = target: Gal(b1-4)GlcNAc(b1-3)Gal(b1-4)GlcNAc(b1-3)Gal(b1-4)GlcNAc(b1-3)Gal(b1-4)GlcNAc(b1-2)Man(a1-3)[Gal(b1-4)GlcNAc(b1-3)Gal(b1-4)GlcNAc(b1-3)Gal(b1-4)GlcNAc(b1-3)Gal(b1-4)GlcNAc(b1-2)Man(a1-6)]Man(b1-4)GlcNAc(b1-4)[Fuc(a1-6)]GlcNAc
# In short: (§1)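 Glycan array binding is given as a within-array Z-score, which can be read as non-binding when negative. The arrays, 3228 of them, came from the Consortium for Functional Glycomics database and were retained only where the protein sequence was available. Z-scores were averaged across arrays of the same protein sequence at different concentrations or buffers and across linkers.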
# [2] = target: Gal(b1-4)GlcNAc(b1-3)Gal(b1-4)GlcNAc(b1-3)Gal(b1-4)GlcNAc(b1-3)Gal(b1-4)GlcNAc(b1-2)[Gal(b1-4)GlcNAc(b1-3)Gal(b1-4)GlcNAc(b1-3)Gal(b1-4)GlcNAc(b1-3)Gal(b1-4)GlcNAc(b1-6)]Man(a1-6)[Gal(b1-4)GlcNAc(b1-3)Gal(b1-4)GlcNAc(b1-3)Gal(b1-4)GlcNAc(b1-3)Gal(b1-4)GlcNAc(b1-2)Man(a1-3)]Man(b1-4)GlcNAc(b1-4)[Fuc(a1-6)]GlcNAc
# In short: as §1
# [3] = target: Gal(b1-4)GlcNAc(b1-3)Gal(b1-4)GlcNAc(b1-3)Gal(b1-4)GlcNAc(b1-3)Gal(b1-4)GlcNAc(b1-3)Gal(b1-4)GlcNAc(b1-2)Man(a1-3)[Gal(b1-4)GlcNAc(b1-3)Gal(b1-4)GlcNAc(b1-3)Gal(b1-4)GlcNAc(b1-3)Gal(b1-4)GlcNAc(b1-3)Gal(b1-4)GlcNAc(b1-2)Man(a1-6)]Man(b1-4)GlcNAc(b1-4)GlcNAc
# In short: as §1
# [4] = target: Gal(b1-4)GlcNAc(b1-3)Gal(b1-4)GlcNAc(b1-3)Gal(b1-4)GlcNAc(b1-3)Gal(b1-4)GlcNAc(b1-3)Gal(b1-4)GlcNAc(b1-2)Man(a1-3)[Gal(b1-4)GlcNAc(b1-3)Gal(b1-4)GlcNAc(b1-3)Gal(b1-4)GlcNAc(b1-3)Gal(b1-4)GlcNAc(b1-3)Gal(b1-4)GlcNAc(b1-2)Man(a1-6)]Man(b1-4)GlcNAc(b1-4)[Fuc(a1-6)]GlcNAc
# In short: as §1
# [5] = target: Gal(b1-4)GlcNAc(b1-3)Gal(b1-4)GlcNAc(b1-3)Gal(b1-4)GlcNAc(b1-3)Gal(b1-4)GlcNAc(b1-3)Gal(b1-4)GlcNAc(b1-2)[Gal(b1-4)GlcNAc(b1-3)Gal(b1-4)GlcNAc(b1-3)Gal(b1-4)GlcNAc(b1-3)Gal(b1-4)GlcNAc(b1-3)Gal(b1-4)GlcNAc(b1-6)]Man(a1-6)[Gal(b1-4)GlcNAc(b1-3)Gal(b1-4)GlcNAc(b1-3)Gal(b1-4)GlcNAc(b1-3)Gal(b1-4)GlcNAc(b1-3)Gal(b1-4)GlcNAc(b1-2)Man(a1-3)]Man(b1-4)GlcNAc(b1-4)[Fuc(a1-6)]GlcNAc
# In short: as §1
# [6] = target: Gal(b1-4)GlcNAc(b1-3)Gal(b1-4)GlcNAc(b1-3)Gal(b1-4)GlcNAc(b1-3)Gal(b1-4)GlcNAc(b1-3)Gal(b1-4)GlcNAc(b1-3)Gal(b1-4)GlcNAc(b1-2)Man(a1-3)[Gal(b1-4)GlcNAc(b1-3)Gal(b1-4)GlcNAc(b1-3)Gal(b1-4)GlcNAc(b1-3)Gal(b1-4)GlcNAc(b1-3)Gal(b1-4)GlcNAc(b1-3)Gal(b1-4)GlcNAc(b1-2)Man(a1-6)]Man(b1-4)GlcNAc(b1-4)GlcNAc
# In short: as §1
# [7] = target: Gal(b1-4)GlcNAc(b1-3)Gal(b1-4)GlcNAc(b1-3)GalNAc
# In short: as §1
# [8] = target: Gal(b1-4)GlcNAc(b1-3)Gal(b1-4)GlcNAc(b1-3)[Gal(b1-4)GlcNAc(b1-3)Gal(b1-4)GlcNAc(b1-6)]GalNAc
# In short: as §1
# [9] = target: Gal(b1-4)GlcNAc(b1-3)Gal(b1-4)GlcNAc(b1-6)[Gal(b1-3)]GalNAc
# In short: as §1
# [10] = target: Gal(b1-4)GlcNAc(b1-3)Gal(b1-4)[Fuc(a1-3)]GlcNAc(b1-3)Gal(b1-4)[Fuc(a1-3)]GlcNAc
# In short: as §1
# [11] = target: Gal(b1-4)GlcNAc(b1-3)GalNAc
# In short: as §1
# [12] = target: Gal(b1-4)GlcNAc(b1-3)[Fuc(a1-3)GlcNAc(b1-6)]Gal(b1-4)Glc
# In short: as §1
# [13] = target: Gal(b1-4)GlcNAc(b1-3)[Gal(b1-4)GlcNAc(b1-6)]Gal(b1-4)GlcNAc
# In short: as §1
# [14] = target: Gal(b1-4)GlcNAc(b1-3)[GlcNAc(b1-6)]Gal(b1-4)GlcNAc
# In short: as §1
# [15] = target: Gal(b1-4)GlcNAc(b1-6)Gal(b1-4)GlcNAc
# In short: as §1
# [16] = target: Gal(b1-4)GlcNAc(b1-6)GalNAc
# In short: as §1
# [17] = target: Gal(b1-4)GlcNAc(b1-6)[Gal(b1-3)]GalNAc
# In short: as §1
# [18] = target: Gal(b1-4)GlcNAc(b1-6)[Gal(b1-4)GlcNAc(b1-3)]GalNAc
# In short: as §1
# Gal(b1-4)GlcNAc6P = target: Gal(b1-4)GlcNAc6P
# In short: as §1
# Gal(b1-6)Gal = target: Gal(b1-6)Gal
# In short: as §1
# Gal3S(b1-3)GalNAc = target: Gal3S(b1-3)GalNAc
# In short: as §1
# Gal3S(b1-3)GlcNAc = target: Gal3S(b1-3)GlcNAc
# In short: as §1
# [19] = target: Gal3S(b1-3)[Fuc(a1-4)]GlcNAc
# In short: as §1
# Gal3S(b1-4)Glc = target: Gal3S(b1-4)Glc
# In short: as §1
# Gal3S(b1-4)Glc6S = target: Gal3S(b1-4)Glc6S
# In short: as §1
# Gal3S(b1-4)GlcNAc = target: Gal3S(b1-4)GlcNAc
# In short: as §1
# [20] = target: Gal3S(b1-4)[Fuc(a1-3)]Glc6S
# In short: as §1
# [21] = target: Gal3S(b1-4)[Fuc(a1-3)]GlcNAc
# In short: as §1
# [22] = target: Gal3S(b1-4)[Fuc(a1-3)]GlcNAc6S
# In short: as §1
# Gal3S4S(b1-4)GlcNAc = target: Gal3S4S(b1-4)GlcNAc
# In short: as §1
# Gal3S6S(b1-4)GlcNAc = target: Gal3S6S(b1-4)GlcNAc
# In short: as §1
# Gal3S6S(b1-4)GlcNAc6S = target: Gal3S6S(b1-4)GlcNAc6S
# In short: as §1
# Gal4S(b1-4)GlcNAc = target: Gal4S(b1-4)GlcNAc
# In short: as §1
# Gal4S6S(b1-4)GlcNAc = target: Gal4S6S(b1-4)GlcNAc
# In short: as §1
# Gal6P(b1-4)GlcNAc = target: Gal6P(b1-4)GlcNAc
# In short: as §1
# Gal6S(b1-3)GlcNAc = target: Gal6S(b1-3)GlcNAc
# In short: as §1
# Gal6S(b1-3)GlcNAc6S = target: Gal6S(b1-3)GlcNAc6S
# In short: as §1
# Gal6S(b1-4)Glc = target: Gal6S(b1-4)Glc
# In short: as §1
binder,measurement,setting,value
B1,glycan array binding signal (z-score),[1],1.27
same,glycan array binding signal (z-score),[2],-0.314
same,glycan array binding signal (z-score),[3],1.57
same,glycan array binding signal (z-score),[4],0.214
same,glycan array binding signal (z-score),[5],0.779
same,glycan array binding signal (z-score),[6],-0.5
same,glycan array binding signal (z-score),[7],0.308
same,glycan array binding signal (z-score),[8],0.844
same,glycan array binding signal (z-score),[9],0.613
same,glycan array binding signal (z-score),[10],0.668
same,glycan array binding signal (z-score),[11],-0.612
same,glycan array binding signal (z-score),[12],-0.792
same,glycan array binding signal (z-score),[13],0.914
same,glycan array binding signal (z-score),[14],-1.21
same,glycan array binding signal (z-score),[15],1.18
same,glycan array binding signal (z-score),[16],1.1
same,glycan array binding signal (z-score),[17],0.965
same,glycan array binding signal (z-score),[18],0.619
same,glycan array binding signal (z-score),Gal(b1-4)GlcNAc6P,-0.489
same,glycan array binding signal (z-score),Gal(b1-6)Gal,-1.09
same,glycan array binding signal (z-score),Gal3S(b1-3)GalNAc,-0.675
same,glycan array binding signal (z-score),Gal3S(b1-3)GlcNAc,-0.162
same,glycan array binding signal (z-score),[19],0.529
same,glycan array binding signal (z-score),Gal3S(b1-4)Glc,0.159
same,glycan array binding signal (z-score),Gal3S(b1-4)Glc6S,-0.285
same,glycan array binding signal (z-score),Gal3S(b1-4)GlcNAc,-0.378
same,glycan array binding signal (z-score),[20],1.22
same,glycan array binding signal (z-score),[21],1.59
same,glycan array binding signal (z-score),[22],0.741
same,glycan array binding signal (z-score),Gal3S4S(b1-4)GlcNAc,4.33
same,glycan array binding signal (z-score),Gal3S6S(b1-4)GlcNAc,0.132
same,glycan array binding signal (z-score),Gal3S6S(b1-4)GlcNAc6S,-0.775
same,glycan array binding signal (z-score),Gal4S(b1-4)GlcNAc,0.737
same,glycan array binding signal (z-score),Gal4S6S(b1-4)GlcNAc,-1.26
same,glycan array binding signal (z-score),Gal6P(b1-4)GlcNAc,1.8
same,glycan array binding signal (z-score),Gal6S(b1-3)GlcNAc,0.277
same,glycan array binding signal (z-score),Gal6S(b1-3)GlcNAc6S,-0.581
same,glycan array binding signal (z-score),Gal6S(b1-4)Glc,0.765

# A different layout for some results above.
binder | measurement | setting | value
B1 | glycan array binding signal (z-score) | [20] | 1.22
same | glycan array binding signal (z-score) | [21] | 1.59
